From the supplement of paper PMC10849652
This is one part of the list.

Sequences of proteins named here, by UniProt entry; tags and fusion partners are left off. A change or cut given only in a name is not applied to a line headed by its entry.
UniProt Q99549: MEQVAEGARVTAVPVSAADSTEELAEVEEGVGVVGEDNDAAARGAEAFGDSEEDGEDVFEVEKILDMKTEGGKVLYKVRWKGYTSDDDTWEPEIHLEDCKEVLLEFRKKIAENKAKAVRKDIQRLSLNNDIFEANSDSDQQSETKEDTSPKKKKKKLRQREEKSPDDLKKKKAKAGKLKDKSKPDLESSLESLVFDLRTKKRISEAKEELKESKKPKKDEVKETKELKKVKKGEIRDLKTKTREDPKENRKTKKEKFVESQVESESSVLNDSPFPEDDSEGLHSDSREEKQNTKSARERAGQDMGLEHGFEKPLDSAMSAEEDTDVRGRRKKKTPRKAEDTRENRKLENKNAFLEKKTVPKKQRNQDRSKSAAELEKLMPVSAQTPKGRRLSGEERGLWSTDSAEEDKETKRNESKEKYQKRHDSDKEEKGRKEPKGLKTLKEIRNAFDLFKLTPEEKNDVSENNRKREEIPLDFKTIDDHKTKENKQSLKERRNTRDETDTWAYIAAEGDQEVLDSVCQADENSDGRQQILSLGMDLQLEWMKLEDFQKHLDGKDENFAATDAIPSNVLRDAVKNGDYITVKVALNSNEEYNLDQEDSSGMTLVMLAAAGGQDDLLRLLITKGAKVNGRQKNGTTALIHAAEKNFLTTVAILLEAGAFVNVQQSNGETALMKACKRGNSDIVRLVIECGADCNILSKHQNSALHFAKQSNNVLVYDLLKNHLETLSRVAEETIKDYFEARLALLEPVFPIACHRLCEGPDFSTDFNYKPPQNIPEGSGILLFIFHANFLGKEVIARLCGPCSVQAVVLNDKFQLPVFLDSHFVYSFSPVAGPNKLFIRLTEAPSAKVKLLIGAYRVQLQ
UniProt Q9BWT6: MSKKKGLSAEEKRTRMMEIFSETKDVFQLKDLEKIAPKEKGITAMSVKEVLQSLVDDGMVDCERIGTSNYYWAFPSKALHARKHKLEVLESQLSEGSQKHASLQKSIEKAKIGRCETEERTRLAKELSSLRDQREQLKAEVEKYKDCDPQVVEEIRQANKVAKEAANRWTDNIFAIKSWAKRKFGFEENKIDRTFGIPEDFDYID
UniProt P49959: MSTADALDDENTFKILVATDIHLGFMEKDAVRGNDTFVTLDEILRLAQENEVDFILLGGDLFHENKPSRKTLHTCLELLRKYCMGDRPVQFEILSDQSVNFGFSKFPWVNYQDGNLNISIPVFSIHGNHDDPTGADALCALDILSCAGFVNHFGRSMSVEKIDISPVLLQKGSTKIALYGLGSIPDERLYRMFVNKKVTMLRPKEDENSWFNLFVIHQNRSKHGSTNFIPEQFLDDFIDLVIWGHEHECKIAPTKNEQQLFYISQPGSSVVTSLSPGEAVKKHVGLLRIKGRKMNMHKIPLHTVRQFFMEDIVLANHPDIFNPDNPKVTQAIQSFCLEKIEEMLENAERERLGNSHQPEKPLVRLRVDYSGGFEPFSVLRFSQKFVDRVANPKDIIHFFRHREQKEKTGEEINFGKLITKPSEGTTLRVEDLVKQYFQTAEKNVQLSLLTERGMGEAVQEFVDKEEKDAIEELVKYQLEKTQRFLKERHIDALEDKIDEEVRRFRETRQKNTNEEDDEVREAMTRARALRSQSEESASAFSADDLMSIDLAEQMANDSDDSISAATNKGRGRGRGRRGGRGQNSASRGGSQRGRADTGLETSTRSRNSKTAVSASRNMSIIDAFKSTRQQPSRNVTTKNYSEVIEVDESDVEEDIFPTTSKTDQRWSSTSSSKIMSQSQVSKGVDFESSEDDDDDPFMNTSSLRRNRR
UniProt Q99547: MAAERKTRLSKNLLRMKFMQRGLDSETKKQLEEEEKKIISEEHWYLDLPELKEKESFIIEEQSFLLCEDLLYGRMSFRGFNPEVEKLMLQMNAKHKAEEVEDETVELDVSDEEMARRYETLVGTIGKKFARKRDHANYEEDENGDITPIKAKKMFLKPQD
UniProt Q14149: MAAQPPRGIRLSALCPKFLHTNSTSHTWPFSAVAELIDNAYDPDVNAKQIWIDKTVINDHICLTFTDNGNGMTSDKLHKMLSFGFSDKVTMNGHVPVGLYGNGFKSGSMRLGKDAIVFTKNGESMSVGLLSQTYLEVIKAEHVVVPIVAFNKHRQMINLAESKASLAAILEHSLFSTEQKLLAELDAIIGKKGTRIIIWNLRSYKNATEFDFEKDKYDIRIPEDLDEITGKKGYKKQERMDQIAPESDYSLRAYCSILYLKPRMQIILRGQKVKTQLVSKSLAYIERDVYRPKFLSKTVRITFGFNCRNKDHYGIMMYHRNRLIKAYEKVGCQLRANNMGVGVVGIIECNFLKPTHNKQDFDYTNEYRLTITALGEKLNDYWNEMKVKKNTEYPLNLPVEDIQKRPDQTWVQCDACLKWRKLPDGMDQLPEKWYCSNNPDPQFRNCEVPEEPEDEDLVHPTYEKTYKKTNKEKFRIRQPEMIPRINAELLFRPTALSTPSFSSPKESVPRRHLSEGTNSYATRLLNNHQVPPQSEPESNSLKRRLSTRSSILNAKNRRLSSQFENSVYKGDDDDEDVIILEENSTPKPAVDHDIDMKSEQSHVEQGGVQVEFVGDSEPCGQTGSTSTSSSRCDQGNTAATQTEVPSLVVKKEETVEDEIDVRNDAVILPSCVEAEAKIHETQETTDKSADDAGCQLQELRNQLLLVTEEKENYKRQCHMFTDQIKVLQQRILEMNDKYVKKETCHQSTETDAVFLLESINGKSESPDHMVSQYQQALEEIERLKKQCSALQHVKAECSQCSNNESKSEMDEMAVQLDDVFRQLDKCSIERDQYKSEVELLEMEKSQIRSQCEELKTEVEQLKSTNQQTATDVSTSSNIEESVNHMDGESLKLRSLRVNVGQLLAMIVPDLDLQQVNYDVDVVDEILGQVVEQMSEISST
UniProt Q00013: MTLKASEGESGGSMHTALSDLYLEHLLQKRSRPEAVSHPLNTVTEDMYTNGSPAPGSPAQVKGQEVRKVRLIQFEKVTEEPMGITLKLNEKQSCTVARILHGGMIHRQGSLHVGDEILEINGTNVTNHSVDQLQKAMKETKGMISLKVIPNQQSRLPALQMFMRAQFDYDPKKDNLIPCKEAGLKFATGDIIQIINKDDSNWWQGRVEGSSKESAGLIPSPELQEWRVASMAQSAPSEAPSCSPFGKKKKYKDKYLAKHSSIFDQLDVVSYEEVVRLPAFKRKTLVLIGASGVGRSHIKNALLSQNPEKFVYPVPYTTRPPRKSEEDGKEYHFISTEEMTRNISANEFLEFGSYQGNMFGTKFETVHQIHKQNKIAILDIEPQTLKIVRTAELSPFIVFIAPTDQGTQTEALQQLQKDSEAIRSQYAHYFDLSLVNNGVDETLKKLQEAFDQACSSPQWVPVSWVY
UniProt O95563: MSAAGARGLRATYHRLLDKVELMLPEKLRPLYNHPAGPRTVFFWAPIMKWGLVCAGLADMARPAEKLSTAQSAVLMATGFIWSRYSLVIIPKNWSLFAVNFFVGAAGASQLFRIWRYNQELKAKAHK
UniProt Q9UQ53: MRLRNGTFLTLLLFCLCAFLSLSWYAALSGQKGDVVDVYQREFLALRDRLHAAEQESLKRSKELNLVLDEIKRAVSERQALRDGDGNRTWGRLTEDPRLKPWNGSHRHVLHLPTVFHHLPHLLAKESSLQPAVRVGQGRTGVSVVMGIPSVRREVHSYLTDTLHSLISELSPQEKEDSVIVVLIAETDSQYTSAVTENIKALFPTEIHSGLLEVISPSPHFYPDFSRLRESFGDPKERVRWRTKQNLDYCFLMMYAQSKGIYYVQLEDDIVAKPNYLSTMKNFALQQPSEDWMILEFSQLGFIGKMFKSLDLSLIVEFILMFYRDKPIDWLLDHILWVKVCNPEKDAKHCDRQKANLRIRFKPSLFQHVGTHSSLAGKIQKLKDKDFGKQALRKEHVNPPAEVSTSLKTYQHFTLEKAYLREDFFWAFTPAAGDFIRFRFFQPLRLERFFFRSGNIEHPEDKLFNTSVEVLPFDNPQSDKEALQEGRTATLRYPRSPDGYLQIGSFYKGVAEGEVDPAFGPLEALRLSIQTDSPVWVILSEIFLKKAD
UniProt Q9Y3A3: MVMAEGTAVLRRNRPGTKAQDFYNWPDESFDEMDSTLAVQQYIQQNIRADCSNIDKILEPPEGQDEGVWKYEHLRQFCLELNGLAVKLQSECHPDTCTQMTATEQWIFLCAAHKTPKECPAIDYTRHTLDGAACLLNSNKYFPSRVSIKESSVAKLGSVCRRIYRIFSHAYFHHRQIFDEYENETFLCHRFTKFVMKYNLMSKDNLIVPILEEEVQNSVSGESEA
UniProt Q96T76: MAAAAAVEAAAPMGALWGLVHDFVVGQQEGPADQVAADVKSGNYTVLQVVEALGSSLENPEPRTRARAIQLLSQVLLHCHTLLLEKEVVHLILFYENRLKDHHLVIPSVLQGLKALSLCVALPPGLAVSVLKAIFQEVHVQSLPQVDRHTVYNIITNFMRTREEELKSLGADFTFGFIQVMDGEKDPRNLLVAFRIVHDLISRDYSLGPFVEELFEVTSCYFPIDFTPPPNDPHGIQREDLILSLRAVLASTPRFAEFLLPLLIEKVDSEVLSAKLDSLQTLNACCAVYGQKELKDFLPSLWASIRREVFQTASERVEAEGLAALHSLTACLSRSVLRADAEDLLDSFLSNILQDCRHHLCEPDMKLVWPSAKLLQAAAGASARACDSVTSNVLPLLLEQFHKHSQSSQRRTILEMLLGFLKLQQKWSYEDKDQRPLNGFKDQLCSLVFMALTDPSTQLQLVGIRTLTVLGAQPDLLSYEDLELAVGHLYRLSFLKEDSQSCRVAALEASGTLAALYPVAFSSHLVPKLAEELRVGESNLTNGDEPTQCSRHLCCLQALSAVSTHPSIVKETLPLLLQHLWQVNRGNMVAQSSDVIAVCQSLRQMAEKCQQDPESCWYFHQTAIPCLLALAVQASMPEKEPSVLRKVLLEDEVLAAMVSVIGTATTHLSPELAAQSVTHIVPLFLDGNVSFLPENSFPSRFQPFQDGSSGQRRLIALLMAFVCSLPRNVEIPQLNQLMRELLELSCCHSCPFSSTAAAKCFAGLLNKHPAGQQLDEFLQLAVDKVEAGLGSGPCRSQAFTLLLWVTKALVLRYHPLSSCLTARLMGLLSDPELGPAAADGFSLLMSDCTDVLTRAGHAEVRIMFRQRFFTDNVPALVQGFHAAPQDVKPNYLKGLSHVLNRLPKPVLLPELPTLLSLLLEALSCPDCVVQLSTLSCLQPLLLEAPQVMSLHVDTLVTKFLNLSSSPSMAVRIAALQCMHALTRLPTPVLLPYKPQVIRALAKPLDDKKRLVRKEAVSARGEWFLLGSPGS
UniProt Q10469: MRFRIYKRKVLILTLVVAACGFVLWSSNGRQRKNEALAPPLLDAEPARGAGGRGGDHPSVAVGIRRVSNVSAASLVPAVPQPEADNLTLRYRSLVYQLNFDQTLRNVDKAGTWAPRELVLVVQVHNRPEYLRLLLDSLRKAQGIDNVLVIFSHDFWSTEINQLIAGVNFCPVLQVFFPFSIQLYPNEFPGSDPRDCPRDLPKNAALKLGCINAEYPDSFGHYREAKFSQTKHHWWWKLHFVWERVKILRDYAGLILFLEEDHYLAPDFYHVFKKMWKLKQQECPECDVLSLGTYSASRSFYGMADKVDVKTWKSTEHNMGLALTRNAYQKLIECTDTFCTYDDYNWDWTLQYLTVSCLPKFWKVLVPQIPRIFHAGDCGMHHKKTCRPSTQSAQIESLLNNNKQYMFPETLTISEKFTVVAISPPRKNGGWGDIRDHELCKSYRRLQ
UniProt Q7Z3K6: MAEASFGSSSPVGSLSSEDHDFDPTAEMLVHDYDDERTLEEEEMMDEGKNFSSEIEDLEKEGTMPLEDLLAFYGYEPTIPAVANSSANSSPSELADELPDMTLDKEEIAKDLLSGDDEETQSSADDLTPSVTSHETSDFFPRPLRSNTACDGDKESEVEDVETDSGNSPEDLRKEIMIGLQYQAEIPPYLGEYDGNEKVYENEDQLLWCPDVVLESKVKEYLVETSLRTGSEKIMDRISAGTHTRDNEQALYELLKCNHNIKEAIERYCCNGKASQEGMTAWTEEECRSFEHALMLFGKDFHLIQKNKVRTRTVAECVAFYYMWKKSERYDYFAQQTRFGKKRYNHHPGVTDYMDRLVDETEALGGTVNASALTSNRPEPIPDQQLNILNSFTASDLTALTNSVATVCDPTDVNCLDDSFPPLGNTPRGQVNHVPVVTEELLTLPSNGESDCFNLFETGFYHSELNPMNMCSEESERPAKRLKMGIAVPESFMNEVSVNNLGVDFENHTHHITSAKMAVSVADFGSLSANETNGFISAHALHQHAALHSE
UniProt O75352: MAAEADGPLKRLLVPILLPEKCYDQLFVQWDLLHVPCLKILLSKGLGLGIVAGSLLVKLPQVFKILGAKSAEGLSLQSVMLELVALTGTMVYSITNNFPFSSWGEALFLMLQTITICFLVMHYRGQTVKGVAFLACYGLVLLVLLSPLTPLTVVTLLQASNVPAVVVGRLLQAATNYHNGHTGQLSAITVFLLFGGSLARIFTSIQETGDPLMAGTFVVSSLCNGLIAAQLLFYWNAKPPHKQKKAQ

Columns and labels:
Assay in all cases: log2 fold change, soluble protein after heating vs DMSO (PISA); higher = thermal stabilisation; K562 lysate, 10 uM; active = over 0.2 and 3.5 SD of the protein, either way, in both replicates (recomputed)
erlotinib = compound: C#Cc1cccc(Nc2ncnc3cc(OCCOC)c(OCCOC)cc23)c1 [erlotinib]
How it was run: (§1)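 Soluble protein was defined as the supernatant remaining after 21,000xg for 90 min, following pooling of heated aliquots and adjustment to 0.5% NP-40 at 4°C. Before that, crude K562 extract at 1 mg/mL protein in PBS pH 7.4 with 1 mM MgCl2 was treated with 10 μM compound for 30 min and heated for 3 min across 48°C-58°C. Quantification used TMTpro 16plex LC-MS/MS with channel sums equalised, and values are log-two fold changes in thermal stability relative to solvent controls from duplicates.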

[1] = compound: C/C(=N\NC(=O)C1=CC(=CC=C1)S(=O)(=O)N2CCOCC2)/C3=C(C=CC(=C3)Cl)O
How it was run: as §1

[2] = compound: C1=CC(=CC=C1C2=NC3=C(N2)C=C(C=C3)C(=O)N)OC4=CC=C(C=C4)Cl
How it was run: as §1

[3] = compound: C1=CC2=C(C=CC(=C2)/C=C\3/C(=O)NC(=NCC4=CC=CS4)S3)N=C1
How it was run: as §1

[4] = compound: C1=CC2=NC=CN=C2C=C1/C=C/3\C(=O)NC(=O)S3
How it was run: as §1

[5] = compound: C1=CC=C(C=C1)C2=NC(=C(N2)C3=CC=NC=C3)C4=CC(=C(C=C4)Cl)O
How it was run: as §1

[6] = compound: C1=CC=C2C(=C1)C3=NNC4=CC=CC(=C43)C2=O
How it was run: as §1

[7] = compound: C1CCN(C1)C(=O)NC2=CC=CC(=C2)NC3=NC=C(C(=N3)NCCC4=CN=CN4)Br
How it was run: as §1

[8] = compound: C1CN(CCC1(CC2=CC=C(C=C2)Cl)N)C3=NC=NC4=C3C=CN4
How it was run: as §1

IRAK-1-4 Inhibitor I = compound: C1COCCN1CCN2C3=CC=CC=C3N=C2NC(=O)C4=CC(=CC=C4)[N+](=O)[O-] [IRAK-1-4 Inhibitor I]
How it was run: as §1

Measured: log2 fold change

MIPEP (UniProt Q99797)
inactive: erlotinib -0.048 | [1] -0.06 | [2] 0.005 | [3] 0.021 | [4] 0.019 | [5] -0.029 | [6] -0.008 | [7] 0.006 | [8] 0.005 | IRAK-1-4 Inhibitor I -0.004

MPHOSPH8 (UniProt Q99549)
inactive: erlotinib -0.234 | [1] 0.026 | [2] -0.214 | [3] 0.146 | [4] -0.23 | [5] 0.098 | [6] -0.111 | [7] -0.222 | [8] -0.034 | IRAK-1-4 Inhibitor I 0.073

MRPL20 (UniProt Q9BYC9)
inactive: erlotinib 0.046 | [1] 0.014 | [2] -0.092 | [3] -0.044 | [4] 0.057 | [5] -0.033 | [6] 0.11 | [7] 0.017 | [8] -0.096 | IRAK-1-4 Inhibitor I -0.013

MLEC (UniProt Q14165)
inactive: erlotinib -0.01 | [1] 0.026 | [2] -0.031 | [3] 0.011 | [4] -0.012 | [5] -0.018 | [6] 0.009 | [7] 0.026 | [8] 0.008 | IRAK-1-4 Inhibitor I 0.032

MND1 (UniProt Q9BWT6)
inactive: erlotinib -0.035 | [1] -0.018 | [2] -0.002 | [3] -0.013 | [4] -0.008 | [5] 0.019 | [6] 0.062 | [7] 0.012 | [8] 0.005 | IRAK-1-4 Inhibitor I -0.01

MRE11 isoform 3 (UniProt P49959)
inactive: erlotinib -0.021 | [1] -0.036 | [2] 0.027 | [3] 0.024 | [4] -0.027 | [5] 0.004 | [6] -0.025 | [7] 0.001 | [8] 0.004 | IRAK-1-4 Inhibitor I -0.016

MRPL11 (UniProt Q9Y3B7)
inactive: erlotinib 0.03 | [1] -0.023 | [2] 0.021 | [3] 0.013 | [4] 0.026 | [5] -0.01 | [6] -0.101 | [7] -0.015 | [8] 0.002 | IRAK-1-4 Inhibitor I 0.033

MPHOSPH6 (UniProt Q99547)
inactive: erlotinib 0.012 | [1] -0.026 | [2] 0.024 | [3] -0.007 | [4] -0.028 | [5] -0.011 | [6] -0.02 | [7] -0.054 | [8] 0.006 | IRAK-1-4 Inhibitor I -0.036

MRPL1 (UniProt Q9BYD6)
inactive: erlotinib 0.003 | [1] 0.064 | [2] -0.056 | [3] -0.013 | [4] 0.002 | [5] 0.003 | [6] -0.016 | [7] 0.049 | [8] -0.071 | IRAK-1-4 Inhibitor I -0.013

MINDY1 isoform 3 (UniProt Q8N5J2)
inactive: erlotinib 0.052 | [1] -0.006 | [2] 0.048 | [3] -0.031 | [4] 0.245 | [5] 0.053 | [6] 0.056 | [7] -0.082 | [8] -0.066 | IRAK-1-4 Inhibitor I -0.02

MORC3 (UniProt Q14149)
inactive: erlotinib 0.02 | [1] -0.047 | [2] -0.005 | [3] 0.01 | [4] -0.025 | [5] 0.034 | [6] -0.033 | [7] -0.029 | [8] 0.002 | IRAK-1-4 Inhibitor I -0.011

MRPL15 (UniProt Q9P015)
inactive: erlotinib 0.037 | [1] -0.16 | [2] 0.051 | [3] -0.026 | [4] -0.055 | [5] -0.017 | [6] 0.004 | [7] -0.023 | [8] -0.016 | IRAK-1-4 Inhibitor I 0.034

MOV10 (UniProt Q9HCE1)
inactive: erlotinib -0.005 | [1] 0.015 | [2] -0.019 | [3] -0.003 | [4] -0.015 | [5] -0.004 | [6] -0.015 | [7] 0 | [8] 0.012 | IRAK-1-4 Inhibitor I -0.016

MPP1 (UniProt Q00013)
inactive: erlotinib 0.014 | [1] 0.017 | [2] -0.007 | [3] -0.008 | [4] -0.025 | [5] 0.014 | [6] -0.014 | [7] 0.003 | [8] 0.018 | IRAK-1-4 Inhibitor I -0.007

MORF4L2 (UniProt Q15014)
inactive: erlotinib -0.021 | [1] -0.008 | [2] 0 | [3] -0.021 | [4] -0.052 | [5] 0.001 | [6] -0.046 | [7] -0.009 | [8] 0.038 | IRAK-1-4 Inhibitor I -0.022

MRPL21 (UniProt Q7Z2W9)
inactive: erlotinib -0.068 | [1] -0.012 | [2] 0.072 | [3] -0.002 | [4] 0.032 | [5] 0.03 | [6] 0.019 | [7] -0.071 | [8] 0.05 | IRAK-1-4 Inhibitor I 0.002

MON1A (UniProt Q86VX9)
inactive: erlotinib -0.008 | [1] -0.296 | [2] 0.05 | [3] -0.103 | [4] 0.014 | [5] -0.077 | [6] -0.023 | [7] 0.14 | [8] -0.046 | IRAK-1-4 Inhibitor I 0.018

MPC2 (UniProt O95563)
inactive: erlotinib 0.016 | [1] -0.015 | [2] 0 | [3] -0.026 | [4] 0.037 | [5] 0.022 | [6] -0.025 | [7] -0.009 | [8] 0.035 | IRAK-1-4 Inhibitor I 0.044

MGAT4B isoform 3 (UniProt Q9UQ53)
inactive: erlotinib -0.048 | [1] -0.214 | [2] -0.017 | [3] 0.063 | [4] -0.041 | [5] -0.077 | [6] -0.238 | [7] -0.1 | [8] 0.013 | IRAK-1-4 Inhibitor I -0.022

MON2 isoform 5 (UniProt Q7Z3U7)
inactive: erlotinib 0.031 | [1] -0.031 | [2] -0.018 | [3] 0.019 | [4] 0.001 | [5] -0.016 | [6] -0.021 | [7] 0.012 | [8] 0.04 | IRAK-1-4 Inhibitor I 0.009

MRPL17 (UniProt Q9NRX2)
inactive: erlotinib 0 | [1] 0.085 | [2] 0.053 | [3] -0.034 | [4] -0.012 | [5] -0.028 | [6] -0.03 | [7] 0.03 | [8] -0.002 | IRAK-1-4 Inhibitor I 0.013

MOB4 (UniProt Q9Y3A3)
inactive: erlotinib 0.016 | [1] -0.018 | [2] 0.054 | [3] 0.041 | [4] 0.028 | [5] -0.025 | [6] 0.049 | [7] -0.002 | [8] 0.056 | IRAK-1-4 Inhibitor I 0.037

MICU1 isoform 3 (UniProt Q9BPX6)
inactive: erlotinib 0.009 | [1] 0.049 | [2] -0.029 | [3] -0.017 | [4] -0.012 | [5] -0.047 | [6] 0.001 | [7] 0.016 | [8] 0.012 | IRAK-1-4 Inhibitor I 0.024

MMS19 isoform 8 (UniProt Q96T76)
inactive: erlotinib 0.026 | [1] -0.019 | [2] -0.016 | [3] -0.02 | [4] -0.009 | [5] 0.011 | [6] -0.099 | [7] 0.01 | [8] 0.034 | IRAK-1-4 Inhibitor I 0.004

Reprinted at random: 2 entries already listed.
MMS19 isoform 8 (UniProt Q96T76)
inactive: erlotinib 0.026 | [1] -0.019 | [2] -0.016 | [3] -0.02 | [4] -0.009 | [5] 0.011 | [6] -0.099 | [7] 0.01 | [8] 0.034 | IRAK-1-4 Inhibitor I 0.004

MRPL17 (UniProt Q9NRX2)
inactive: erlotinib 0 | [1] 0.085 | [2] 0.053 | [3] -0.034 | [4] -0.012 | [5] -0.028 | [6] -0.03 | [7] 0.03 | [8] -0.002 | IRAK-1-4 Inhibitor I 0.013

(continued)

MGAT2 (UniProt Q10469)
inactive: erlotinib -0.004 | [1] 0.012 | [2] 0.037 | [3] -0.019 | [4] 0.014 | [5] 0.033 | [6] 0.083 | [7] -0.026 | [8] -0.049 | IRAK-1-4 Inhibitor I 0.001

MIER3 isoform 2 (UniProt Q7Z3K6)
inactive: erlotinib 0.085 | [1] -0.014 | [2] -0.065 | [3] -0.003 | [4] -0.114 | [5] 0.02 | [6] -0.059 | [7] -0.007 | [8] 0.001 | IRAK-1-4 Inhibitor I 0.024

MKNK1 (UniProt Q9BUB5)
inactive: erlotinib 0.079 | [1] 0.01 | [2] 0.017 | [3] 0.104 | [4] 0.004 | [5] -0.006 | [6] -0.014 | [7] 0.014 | [8] 0.068 | IRAK-1-4 Inhibitor I 0.048

MGST2 (UniProt Q99735)
inactive: erlotinib -0.03 | [1] 0 | [2] 0.099 | [3] 0.002 | [4] -0.002 | [5] -0.031 | [6] -0.089 | [7] -0.097 | [8] 0.185 | IRAK-1-4 Inhibitor I -0.031

MPDU1 (UniProt O75352)
inactive: erlotinib 0.049 | [1] -0.144 | [2] 0.049 | [3] -0.045 | [4] 0.119 | [5] -0.022 | [6] 0.063 | [7] -0.029 | [8] 0.031 | IRAK-1-4 Inhibitor I 0.035
